The list shows a part of the results. These are further read-outs of the screen, such as a control signal, another cell line or another target. No call is given for them. The list favours compounds with an active or inconclusive main result. Potencies come from curve fits of mixed quality, noted in brackets.

The nature of this experiment: IkB Signaling. The conditions noted are these: ABC-DLBCL IkBa-CBG/CBR dual luciferase ratio (green luciferase fused to IkBa over red control in OCI-Ly3 lymphoma cells), 4 h. The procedure, abridged:
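In this assay, an IκBα–CBG68 fusion accumulates when IKK-driven degradation is blocked; native CBR normalizes for cell number. OCI-Ly3 cells were treated 4 h with compound and doxycycline, then green and red light read after Chroma-Glo addition.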

[1] abbreviates: measured here: control luc red channel unless noted.

Take `CC(=O)c1ccc(Nc2nc3ccccc3nc2-n2nc(C)cc2C)cc1`: the half-maximal activity concentration (AC50) under setting [1] was 3.16 µM [falling, full curve].

`CC(=O)N1CCN(c2nc3c(C)ccc(Cl)c3s2)CC1`: the AC50 under setting [1] was 2 µM [rising, partial curve].

`COc1cccc(NC(=O)CSc2nccn2Cc2ccc3c(c2)OCO3)c1`: the AC50 under setting [1] was 31.6 µM [falling, single point].

Turning to `CC1=C(C(=O)OCc2ccc3c(c2)OCO3)C(c2ccccc2)NC(=O)N1` (centres undefined), under setting [1], the half-maximal activity concentration (AC50) is 12.6 µM [falling, partial curve].

Consider `C=CCc1ccccc1OCCn1c(C2CC(=O)N(Cc3ccc(F)cc3)C2)nc2ccccc21` (centres undefined), for which the concentration at half-maximal activity (AC50) under setting [1] is 31.6 µM [falling, single point].

Turning to `Cc1ccc2nc(-c3cccc(Cl)c3)c(Nc3ccc4c(c3)OCO4)n2c1`, the half-maximal activity concentration (AC50) under setting [1] is 0.631 µM [falling, full curve].

Take `Cc1ccc(C)c(NC(=O)N2CCc3cc(S(=O)(=O)N4CCC(C)CC4)ccc32)c1`: the AC50 under setting [1] is 15.8 µM [falling, partial curve].

With `COc1ccccc1CCNC(=O)C(=O)NCC(c1cccs1)S(=O)(=O)c1ccc(F)cc1` (centres undefined), the concentration at half-maximal activity (AC50) under setting [1] is 31.6 µM [falling, single point].

For the molecule `CCc1ccc(S(=O)(=O)c2nnn3c2nc(NCc2cccc(OC)c2)c2cc(Cl)ccc23)cc1`, under setting [1], the AC50 was 15.8 µM [falling, partial curve].

For the molecule `O=C(Nc1cccc(-c2nc3ccccc3[nH]2)c1)c1ccccc1F`, under setting [1], the concentration at half-maximal activity (AC50) was 15.8 µM [falling, partial curve].

Consider `COc1ccccc1NC(=O)Cn1cc(C(=O)c2ccncc2)c(=O)c2cc(C)ccc21`, for which the half-maximal activity concentration (AC50) under setting [1] was 7.94 µM [falling, partial curve].

Regarding `CC1=C(c2ccc(C)c(C)c2)S(=O)(=O)N=C1N1CCC(C(=O)Nc2ccc(Cl)cc2)CC1`, the AC50 under setting [1] was 39.8 µM [falling, single point].

For the molecule `COc1cccc(-c2cc(C(=O)Nc3c(C)nn(Cc4ccccc4)c3C)no2)c1`, the AC50 under setting [1] is 15.8 µM [falling, partial curve].

In the case of `CCc1ccc(-c2nc(SCC(=O)NCC3CCCO3)c(-c3ccc(F)cc3)[nH]2)cc1` (centres undefined), the AC50 under setting [1] was 10 µM [falling, partial curve].

As to `COc1ccc(-c2nn(CC(=O)NCc3ccccc3)c3c2cnc2ccc(F)cc23)cc1`, under setting [1], the AC50 is 0.1 µM [rising, full curve].

On to `O=C(Cn1c(=O)nc(-c2ccccc2F)c2cc(Cl)ccc21)Nc1ccccc1C(F)(F)F`, for which, under setting [1], the AC50 is 20 µM [falling, partial curve].

As for `Cc1ccc(-c2nc3nc(C)cc(N4CCN(c5cccc(C)c5)C(C)C4)n3n2)cc1` (centres undefined), the concentration at half-maximal activity (AC50) under setting [1] is 39.8 µM [falling, single point].

Turning to `COC(=O)c1ccc(CSc2ccc3nnc(-c4cccc(F)c4)n3n2)o1`, the AC50 under setting [1] is 3.98 µM [falling, partial curve].

Turning to `O=C(NCc1cccs1)c1nn(-c2ccccc2F)nc1CO`, the AC50 under setting [1] was 15.8 µM [falling, partial curve].

Take `CCCCNC(=O)Cn1ncc2c(C)n(Cc3cccc(Cl)c3)c(C)c2c1=O`: under setting [1], the concentration at half-maximal activity (AC50) was 20 µM [falling, single point].

Turning to `COc1ccccc1-n1c(SCC(=O)N2CCCCC2)nnc1-c1ccccc1O`, the concentration at half-maximal activity (AC50) under setting [1] is 20 µM [falling, partial curve, poor fit].

`COc1ccc(NC(=O)c2cc(S(=O)(=O)N3CCCCC3)cn2C)cc1Cl`: the half-maximal activity concentration (AC50) under setting [1] is 0.00794 µM [falling, full curve, poor fit].

As for `O=C(Nc1ccc(S(=O)(=O)N2CCCCC2c2cccnc2)cc1)c1ccc(F)cc1` (centres undefined), the AC50 under setting [1] is 39.8 µM [falling, partial curve, poor fit].

In the case of `CCc1nnc2c3ccccc3nc(Nc3ccc(F)c(Cl)c3)n12`, under setting [1], the half-maximal activity concentration (AC50) is 0.1 µM [rising, full curve].

`Cc1cccc(N(C)C(=O)c2cc(S(=O)(=O)N3CCCCC3)c[nH]2)c1`: the half-maximal activity concentration (AC50) under setting [1] is 39.8 µM [falling, single point].

For `O=C(Nc1ccc(Cl)cc1)c1cc2c(Cl)nc3ccccc3c2s1`, the AC50 under setting [1] was 39.8 µM [rising, single point].

On to `Oc1c(Cl)cc(Cl)c2c1NCCC2`, for which the AC50 (measured here: IkB-luc green channel) was 25.1 µM [rising, partial curve] and the concentration at half-maximal activity (AC50) (measured here: control luc red channel) is 39.8 µM [falling, single point].

In the case of `COC(=O)CSc1nc2sc3c(c2c(=O)n1Cc1ccccc1)CCC(C(C)(C)C)C3` (centres undefined), the concentration at half-maximal activity (AC50) under setting [1] is 7.94 µM [rising, single point].

As to `COc1ccc(-c2c3c(nc4sc(C(=O)Nc5ccccc5F)c(N)c24)CC(C)(C)CC3=O)cc1`, the AC50 under setting [1] was 15.8 µM [falling, partial curve].

As for `O=C(c1ccco1)N1CCN(c2nc(C(F)(F)F)nc3c2nnn3Cc2ccccc2)CC1`, the half-maximal activity concentration (AC50) under setting [1] is 31.6 µM [falling, partial curve].

With `CCN(Cc1ccccc1)C(=O)CN1C(=O)CSc2ccc(S(=O)(=O)N(CC)CC)cc21`, the AC50 under setting [1] was 20 µM [falling, single point].

On to `COc1cc(-c2noc(CN3CCN(c4cccc(Cl)c4)CC3)n2)cc(OC)c1OC`, for which the AC50 under setting [1] was 0.158 µM [rising, full curve, poor fit].

For `Cc1ccc(NC(=O)CSc2n[nH]c(-c3ccc(F)cc3)n2)cc1F`, under setting [1], the AC50 was 25.1 µM [falling, single point].

With `CCOc1ccccc1NC(=O)N1CCN(C)c2ncccc21`, under setting [1], the concentration at half-maximal activity (AC50) is 2 µM [falling, partial curve].

In the case of `COc1ccc2nc(NC(=O)c3nc(S(=O)(=O)Cc4ccccc4)ncc3Cl)sc2c1`, under setting [1], the concentration at half-maximal activity (AC50) is 12.6 µM [falling, partial curve].

Regarding `Cc1ccc(CN2C(=O)CN(C3CCC(C)CC3)C(=O)C2c2ccc(F)cc2)cc1` (centres undefined), the concentration at half-maximal activity (AC50) under setting [1] is 31.6 µM [falling, single point].

Take `CCOc1ccc2nc(NC(=O)CSc3nc4c(c(=O)n(C)c(=O)n4C)n3C(C)C)sc2c1`: the concentration at half-maximal activity (AC50) under setting [1] was 25.1 µM [falling, partial curve].

With `CCCN(CCC)CCNC(=O)c1cc2c(-c3ccc(Cl)cc3)nn(C)c2s1`, the half-maximal activity concentration (AC50) under setting [1] is 20 µM [falling, single point].

Consider `Cc1ccccc1S(=O)(=O)Cc1ccc(C(=O)N2CCN(c3ccc(F)cc3)CC2)o1`, for which the AC50 under setting [1] was 25.1 µM [falling, partial curve].

On to `COc1ccc(-c2cc(-c3cc(F)ccc3O)[nH]n2)cc1OC`, for which the concentration at half-maximal activity (AC50) under setting [1] was 15.8 µM [falling, partial curve].

Take `COc1ccc(N=c2oc3c(OC)cccc3cc2C(=O)NCc2ccco2)cc1OC`: the AC50 under setting [1] was 15.8 µM [falling, partial curve].

As to `Cc1ccc(CN2CCCn3nc(C(=O)NCc4ccc(OC(C)C)cc4)cc3C2=O)cc1`, the AC50 under setting [1] is 31.6 µM [falling, single point].

As for `COC(=O)c1ccc(NC(=O)CCc2c(C)nc3c(-c4ccccc4)c(C)nn3c2C)cc1`, the concentration at half-maximal activity (AC50) under setting [1] was 10 µM [falling, partial curve].

For the molecule `COc1ccc(-n2c(C)c(C(C)=O)c3cc(OC(=O)c4ccc(C)cc4)ccc32)cc1`, under setting [1], the half-maximal activity concentration (AC50) was 10 µM [falling, partial curve].

Consider `CCC1=Nc2cc(C(=O)NCC(C)c3ccccc3)ccc2Sc2ccc(C)cc21` (centres undefined), for which, under setting [1], the AC50 is 0.0794 µM [falling, full curve].

Regarding `Cc1ccc(Cn2cc(C(=O)c3ccc(F)cc3)c(=O)c3cc4c(cc32)OCO4)cc1`, under setting [1], the AC50 was 25.1 µM [falling, single point].

Consider `Oc1ccc2oc3c(c2c1/C=N/n1cnnc1)CCCC3`, for which the AC50 under setting [1] is 39.8 µM [falling, single point].

As to `CCOC(=O)Cc1ccc(NC(=O)Nc2ccccc2OCc2cc(=O)n3ccccc3n2)cc1`, the AC50 under setting [1] is 0.0316 µM [falling, full curve].

`O=C(CC1SC(=Nc2ccccc2)N(CCCO)C1=O)Nc1ccc(Cl)cc1` (centres undefined): under setting [1], the AC50 was 12.6 µM [falling, partial curve].

For `CC(Oc1ccc(F)cc1)C(=O)Nc1nc(-c2ccc(F)cc2)ns1` (centres undefined), the half-maximal activity concentration (AC50) under setting [1] was 7.94 µM [falling, full curve].

For the molecule `CCCCNC(=O)c1ccc2nc(-c3ccco3)c(-c3ccco3)nc2c1`, the concentration at half-maximal activity (AC50) under setting [1] is 39.8 µM [rising, single point] [measured here: IkB-luc green channel].

`COc1ccc(Cl)cc1NS(=O)(=O)c1ccc(S(=O)(=O)N2CCCC2)cc1`: the AC50 under setting [1] is 39.8 µM [falling, single point].

In the case of `CCCc1nnc(NC(=O)c2cccc(OC)c2)s1`, the half-maximal activity concentration (AC50) under setting [1] was 10 µM [falling, partial curve].

Regarding `CC(C)CC(=O)Nc1ccc2nc(SCC(=O)N3CCCC3)sc2c1`, the concentration at half-maximal activity (AC50) under setting [1] was 25.1 µM [falling, single point].

As to `COc1ccccc1N1CCN(C(=O)c2ccccc2Oc2ccccc2)CC1`, under setting [1], the AC50 is 12.6 µM [falling, partial curve].

As for `Cc1ccc(NC(=O)CCn2nc(C)c(S(=O)(=O)N3CCCCC3)c2C)cc1Cl`, the AC50 under setting [1] is 31.6 µM [falling, single point].

Consider `CCN(c1ccc(C)cc1)S(=O)(=O)c1nnc(NC(=O)C2CCCCC2)s1`, for which the AC50 under setting [1] is 0.398 µM [falling, full curve].

`CCOc1ccccc1N(CC(=O)NC1CCCCC1)C(=O)CCCC(=O)Nc1ccccn1`: under setting [1], the AC50 was 15.8 µM [falling, partial curve].

As to `CCc1ccc(NC(=O)CSC2=Nc3ccccc3C3=NC(CC(=O)NC4CCCCC4)C(=O)N23)cc1` (centres undefined), under setting [1], the AC50 was 0.251 µM [falling, full curve].

On to `COc1ccc(NC(=O)C2CCCN(S(=O)(=O)c3ccc4c(c3)CCCC(=O)N4)C2)cc1OC` (centres undefined), for which the AC50 under setting [1] was 39.8 µM [falling, single point].

For `N/C(CSc1nc(-c2ccccc2)c(-c2ccccc2)o1)=N\O`, under setting [1], the half-maximal activity concentration (AC50) was 15.8 µM [falling, partial curve].

In the case of `COc1ccc(-c2cc(C(=O)O)c(C)o2)cc1OC`, the half-maximal activity concentration (AC50) under setting [1] was 0.0251 µM [falling, full curve].

`Cc1ccc(OCC(=O)NCC2(N3CCOCC3)CCCCC2)cc1C`: the concentration at half-maximal activity (AC50) under setting [1] was 39.8 µM [falling, single point].
